# Test results: publication PMC8384837
# Substitutions are numbered along the chain they refer to. The list shows a part of the results. For some of these results: At the low end of the ranking the order means little.
# How the values were obtained:
# Conditions in all cases: yeast three-hybrid, YBZ-1, SC-Leu-His + 0.5 mM 3-AT, 4 days
# [1] = target: T1, PUM1 PUF domain R3-YCG C935Y + R936C + Q939G (Homo sapiens) (UniProt Q14671)
# T1 sequence: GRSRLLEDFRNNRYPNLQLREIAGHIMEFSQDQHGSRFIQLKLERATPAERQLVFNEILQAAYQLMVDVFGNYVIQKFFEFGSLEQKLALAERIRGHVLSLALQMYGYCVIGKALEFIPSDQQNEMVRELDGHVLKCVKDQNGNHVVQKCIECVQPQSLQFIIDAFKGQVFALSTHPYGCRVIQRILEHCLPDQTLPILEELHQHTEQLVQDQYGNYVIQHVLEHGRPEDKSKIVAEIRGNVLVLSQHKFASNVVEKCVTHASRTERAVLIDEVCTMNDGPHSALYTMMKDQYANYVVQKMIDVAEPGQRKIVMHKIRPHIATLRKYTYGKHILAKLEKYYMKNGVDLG
# [2] = target: T2, PUM1 PUF domain R3-YRG C935Y + Q939G (Homo sapiens) (UniProt Q14671)
# T2 sequence: T1 sequence with C109R
# [3] = target: T3, PUM1 PUF domain R3-YRW C935Y + Q939W (Homo sapiens) (UniProt Q14671)
# T3 sequence: T1 sequence with C109R, G112W
# [4] = target: T4, PUM1 PUF domain R3-YSG C935Y + R936S + Q939G (UniProt Q14671)
# T4 sequence: T1 sequence with C109S
# [5] = target: T5, PUM1 PUF domain R3-YSV C935Y + R936S + Q939V (UniProt Q14671)
# T5 sequence: T1 sequence with C109S, G112V
# [6] = target: T6, PUM1 PUF domain R3-YWW C935Y + R936W + Q939W (UniProt Q14671)
# T6 sequence: T1 sequence with C109W, G112W
# [7] = target: T7, PUM1 PUF domain R4-GND N971G + H972N + Q975D (UniProt Q14671)
# T7 sequence: T1 sequence with Y108C, C109R, G112Q, N144G, H145N, Q148D
# [8] = target: T8, PUM1 PUF domain R4-GQG N971G + H972Q + Q975G (Homo sapiens) (UniProt Q14671)
# T8 sequence: T1 sequence with Y108C, C109R, G112Q, N144G, H145Q, Q148G
# [9] = target: T9, PUM1 PUF domain R4-LNA N971L + H972N + Q975A (Homo sapiens) (UniProt Q14671)
# T9 sequence: T1 sequence with Y108C, C109R, G112Q, N144L, H145N, Q148A
# [10] = target: T10, PUM1 PUF domain R4-LNC N971L + H972N + Q975C (Homo sapiens) (UniProt Q14671)
# T10 sequence: T1 sequence with Y108C, C109R, G112Q, N144L, H145N, Q148C
# [11] = target: T11, PUM1 PUF domain R4-NCG H972C + Q975G (Homo sapiens) (UniProt Q14671)
# T11 sequence: T1 sequence with Y108C, C109R, G112Q, H145C, Q148G
# [12] = target: T12, PUM1 PUF domain R4-QPA N971Q + H972P + Q975A (Homo sapiens) (UniProt Q14671)
# T12 sequence: T1 sequence with Y108C, C109R, G112Q, N144Q, H145P, Q148A
# [13] = target: T13, PUM1 PUF domain R4-THP N971T + Q975P (Homo sapiens) (UniProt Q14671)
# T13 sequence: T1 sequence with Y108C, C109R, G112Q, N144T, Q148P
# [14] = target: T14, PUM1 PUF domain R4-TPE N971T + H972P + Q975E (Homo sapiens) (UniProt Q14671)
# T14 sequence: T1 sequence with Y108C, C109R, G112Q, N144T, H145P, Q148E
# [15] = target: T15, PUM1 PUF domain R4-VCA N971V + H972C + Q975A (Homo sapiens) (UniProt Q14671)
# T15 sequence: T1 sequence with Y108C, C109R, G112Q, N144V, H145C, Q148A
# [16] = target: T16, PUM1 PUF domain R4-VNG N971V + H972N + Q975G (Homo sapiens) (UniProt Q14671)
# T16 sequence: T1 sequence with Y108C, C109R, G112Q, N144V, H145N, Q148G
# [17] = target: T17, PUM1 PUF domain R4-WGM N971W + H972G + Q975M (Homo sapiens) (UniProt Q14671)
# T17 sequence: T1 sequence with Y108C, C109R, G112Q, N144W, H145G, Q148M
# [18] = target: T18, PUM1 PUF domain R6-AWE N1043A + Y1044W + Q1047E (UniProt Q14671)
# T18 sequence: T1 sequence with Y108C, C109R, G112Q, N216A, Y217W, Q220E
# [19] = target: T19, PUM1 PUF domain R6-AWG N1043A + Y1044W + Q1047G (Homo sapiens) (UniProt Q14671)
# T19 sequence: T1 sequence with Y108C, C109R, G112Q, N216A, Y217W, Q220G
# [20] = target: T20, PUM1 PUF domain R6-AFL N1043A + Y1044F + Q1047L (UniProt Q14671)
# T20 sequence: T1 sequence with Y108C, C109R, G112Q, N216A, Y217F, Q220L
sequence,measurement,setting,value
GGCUAGAACUAGUGGAUCCCCCGGCGCCCGGCGGCUCGAGCCCGGGUAAGUGUAAAUAGUCUGCAUGCCGCCGGGCGCCAUGCCUGCAGGUCGACUCUAGAAAACAUG,binding signal (log2 enrichment (interaction score)),[1],-1.75
same,binding signal (log2 enrichment (interaction score)),[2],-1.36
same,binding signal (log2 enrichment (interaction score)),[3],0.16
same,binding signal (log2 enrichment (interaction score)),[4],-3.35
same,binding signal (log2 enrichment (interaction score)),[5],< -9.84
same,binding signal (log2 enrichment (interaction score)),[6],< -6.41
same,binding signal (log2 enrichment (interaction score)),[7],< -4.99
same,binding signal (log2 enrichment (interaction score)),[8],-0.27
same,binding signal (log2 enrichment (interaction score)),[9],-3.1
same,binding signal (log2 enrichment (interaction score)),[10],-2.04
same,binding signal (log2 enrichment (interaction score)),[11],0.67
same,binding signal (log2 enrichment (interaction score)),[12],-1.7
same,binding signal (log2 enrichment (interaction score)),[13],1.58
same,binding signal (log2 enrichment (interaction score)),[14],-6.19
same,binding signal (log2 enrichment (interaction score)),[15],-4.73
same,binding signal (log2 enrichment (interaction score)),[16],0.29
same,binding signal (log2 enrichment (interaction score)),[17],0.78
same,binding signal (log2 enrichment (interaction score)),[18],< -5.96
same,binding signal (log2 enrichment (interaction score)),[19],-1.95
GGCUAGAACUAGUGGAUCCCCCGGCGCCCGGCGGCUCGAGCCCGGGUAAGUGGAAAUAGUCUGCAUGCCGCCGGGCGCCAUGCCUGCAGGUCGACUCUAGAAAACAUG,binding signal (log2 enrichment (interaction score)),[20],< -7.01
same,binding signal (log2 enrichment (interaction score)),[19],-7.23
GGCUAGAACUAGUGGAUCCCCCGGCGCCCGGCGGCUCGAGCCCGGGUAAGUGUACAUAGUCUGCAUGCCGCCGGGCGCCAUGCCUGCAGGUCGACUCUAGAAAACAUG,binding signal (log2 enrichment (interaction score)),[7],< -5.87
same,binding signal (log2 enrichment (interaction score)),[8],-2.73
same,binding signal (log2 enrichment (interaction score)),[9],-1.12
same,binding signal (log2 enrichment (interaction score)),[10],-0.23
same,binding signal (log2 enrichment (interaction score)),[11],-0.23
same,binding signal (log2 enrichment (interaction score)),[12],0.22
same,binding signal (log2 enrichment (interaction score)),[13],-1.42
same,binding signal (log2 enrichment (interaction score)),[14],1.24
same,binding signal (log2 enrichment (interaction score)),[15],-1.11
same,binding signal (log2 enrichment (interaction score)),[16],0.34
same,binding signal (log2 enrichment (interaction score)),[17],-2.38
GGCUAGAACUAGUGGAUCCCCCGGCGCCCGGCGGCUCGAGCCCGGGUAAGUGUAAUUAGUCUGCAUGCCGCCGGGCGCCAUGCCUGCAGGUCGACUCUAGAAAACAUG,binding signal (log2 enrichment (interaction score)),[1],-2.15
same,binding signal (log2 enrichment (interaction score)),[2],-2.21
same,binding signal (log2 enrichment (interaction score)),[3],-0.42
same,binding signal (log2 enrichment (interaction score)),[4],-3.18
same,binding signal (log2 enrichment (interaction score)),[5],-4.96
same,binding signal (log2 enrichment (interaction score)),[6],-5.19
GGCUAGAACUAGUGGAUCCCCCGGCGCCCGGCGGCUCGAGCCCGGGUAAGUGCAAAUAGUCUGCAUGCCGCCGGGCGCCAUGCCUGCAGGUCGACUCUAGAAAACAUG,binding signal (log2 enrichment (interaction score)),[20],< -7.05
same,binding signal (log2 enrichment (interaction score)),[18],-4.47

# Exported as tab-separated lines: part of the list above.
sequence	measurement	setting	value
GGCUAGAACUAGUGGAUCCCCCGGCGCCCGGCGGCUCGAGCCCGGGUAAGUGUAAAUAGUCUGCAUGCCGCCGGGCGCCAUGCCUGCAGGUCGACUCUAGAAAACAUG	binding signal (log2 enrichment (interaction score))	[12]	-1.7
same	binding signal (log2 enrichment (interaction score))	[13]	1.58
same	binding signal (log2 enrichment (interaction score))	[14]	-6.19
